# Assay results: patent US20130045948A1, “AZOCYCLIC INHIBITORS OF FATTY ACID AMIDE HYDROLASE” (E I DU PONT DE NEMOURS AND COMPANY, priority 2009, published 2013)
# Some of these results come from one statement about several compounds together.
# Tested on: female Cr1:CD1(ICR) mice
# Experiment: Tail immersion assay in mice (analgesic potential, in combination with anandamide)
# Settings: 10 mg/kg i.p. plus anandamide 50 mg/kg; 7.5 sec or below considered no analgesic effect
row,SMILES,mean response time
1,O=C(Oc1ccccc1Cl)N1CCC(c2nc(C3=NOC(c4ccccc4)C3)cs2)CC1 (stereo not shown) [Compound 61],> 7.5 s
2,"O=C(Oc1ccccc1)N1CCC(c2nc(C3=NOC(c4ccccc4)C3)cs2)CC1 (stereo not shown) [Compound 11, phenyl 4-[4-(4,5-dihydro-5-phenyl-3-isoxazolyl)-2-thiazolyl]-1-piperidinecarboxylate]",> 7.5 s
3,"O=C(Nc1ccccc1)N1CCC(c2nc(C3=NOC(c4ccccc4)C3)cs2)CC1 (stereo not shown) [Compound 1, 4-[4-(4,5-dihydro-5-phenyl-3-isoxazolyl)-2-thiazolyl]-N-phenyl-1-piperidinecarboxamide]",below 7.5 sec
4,O=C(Nc1nccs1)N1CCC(c2nc(C3=NOC(c4ccccc4)C3)cs2)CC1 (stereo not shown) [Compound 49],below 7.5 sec
